Test in all cases: log2 fold change, soluble protein after heating vs DMSO (PISA); higher = thermal stabilisation; K562 lysate, 10 uM; active = over 0.2 and 3.5 SD of the protein, either way, in both replicates (recomputed)
Compound in one assay: CS(=O)(=O)CCNCc1ccc(-c2ccc3ncnc(Nc4ccc(OCc5cccc(F)c5)c(Cl)c4)c3c2)o1 [lapatinib]
The gist of the method: (§1)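 Quantification was by TMTpro 16plex LC-MS/MS with equalised channel sums, applied to the supernatant after 21,000xg for 90 min. Samples were crude K562 extract at 1 mg/mL protein in PBS pH 7.4 with 1 mM MgCl2, treated with 10 μM compound for 30 min, heated for 3 min across 48°C-58°C, pooled and brought to 0.5% NP-40 at 4°C. Values are log-two fold changes in thermal stability relative to solvent controls, from duplicates.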

Chains of the proteins cited; added tags and fusions are not shown. Lines headed by an entry give the natural chain unless they say otherwise; changes in a name come on top.
UniProt Q8WVZ9: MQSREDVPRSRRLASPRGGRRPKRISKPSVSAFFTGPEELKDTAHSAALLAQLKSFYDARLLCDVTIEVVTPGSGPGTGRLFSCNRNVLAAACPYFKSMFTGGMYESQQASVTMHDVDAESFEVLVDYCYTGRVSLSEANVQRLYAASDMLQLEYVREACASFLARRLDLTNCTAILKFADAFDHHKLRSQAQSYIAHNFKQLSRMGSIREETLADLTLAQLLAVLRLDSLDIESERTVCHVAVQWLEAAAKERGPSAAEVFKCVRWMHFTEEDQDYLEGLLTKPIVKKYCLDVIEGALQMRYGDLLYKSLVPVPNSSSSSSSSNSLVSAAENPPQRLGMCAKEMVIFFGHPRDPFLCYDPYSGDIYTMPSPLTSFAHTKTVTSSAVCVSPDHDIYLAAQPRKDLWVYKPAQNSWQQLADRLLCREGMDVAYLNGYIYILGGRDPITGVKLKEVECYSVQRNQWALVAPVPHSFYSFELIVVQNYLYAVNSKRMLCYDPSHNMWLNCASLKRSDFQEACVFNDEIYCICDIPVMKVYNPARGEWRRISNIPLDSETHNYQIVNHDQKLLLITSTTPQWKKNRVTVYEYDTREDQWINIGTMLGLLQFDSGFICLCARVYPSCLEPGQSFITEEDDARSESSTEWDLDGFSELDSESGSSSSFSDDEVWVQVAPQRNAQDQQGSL
UniProt P38570: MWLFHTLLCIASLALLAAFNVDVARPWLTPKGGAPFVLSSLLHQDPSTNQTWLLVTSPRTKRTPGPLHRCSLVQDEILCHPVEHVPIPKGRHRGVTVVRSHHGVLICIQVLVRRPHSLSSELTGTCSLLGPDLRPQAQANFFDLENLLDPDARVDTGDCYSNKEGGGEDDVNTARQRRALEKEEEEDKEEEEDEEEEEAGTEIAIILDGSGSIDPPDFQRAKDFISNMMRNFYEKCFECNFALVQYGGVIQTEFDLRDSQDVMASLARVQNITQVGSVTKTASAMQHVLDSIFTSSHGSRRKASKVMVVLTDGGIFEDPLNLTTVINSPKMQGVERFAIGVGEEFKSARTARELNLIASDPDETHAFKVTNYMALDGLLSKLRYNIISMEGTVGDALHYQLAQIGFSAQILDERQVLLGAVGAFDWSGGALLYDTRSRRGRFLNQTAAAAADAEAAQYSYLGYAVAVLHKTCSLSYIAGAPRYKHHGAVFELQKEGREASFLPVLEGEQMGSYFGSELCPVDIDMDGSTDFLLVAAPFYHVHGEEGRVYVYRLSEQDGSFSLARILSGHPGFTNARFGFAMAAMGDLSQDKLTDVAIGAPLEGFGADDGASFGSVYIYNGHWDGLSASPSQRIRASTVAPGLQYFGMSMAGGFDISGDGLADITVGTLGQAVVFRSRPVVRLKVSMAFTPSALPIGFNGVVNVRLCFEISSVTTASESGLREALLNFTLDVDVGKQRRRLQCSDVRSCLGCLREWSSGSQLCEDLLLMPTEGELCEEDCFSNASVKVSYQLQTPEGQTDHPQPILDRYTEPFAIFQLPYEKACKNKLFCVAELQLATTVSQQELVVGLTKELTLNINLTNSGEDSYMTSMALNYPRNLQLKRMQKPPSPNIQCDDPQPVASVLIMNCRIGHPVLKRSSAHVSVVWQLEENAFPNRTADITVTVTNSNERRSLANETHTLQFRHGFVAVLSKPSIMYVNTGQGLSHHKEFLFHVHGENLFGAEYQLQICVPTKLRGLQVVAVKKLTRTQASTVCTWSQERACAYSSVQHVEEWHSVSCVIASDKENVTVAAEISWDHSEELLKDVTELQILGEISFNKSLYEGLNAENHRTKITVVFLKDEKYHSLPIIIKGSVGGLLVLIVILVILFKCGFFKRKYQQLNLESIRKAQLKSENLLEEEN
UniProt Q96HW7, whole entry, looked up: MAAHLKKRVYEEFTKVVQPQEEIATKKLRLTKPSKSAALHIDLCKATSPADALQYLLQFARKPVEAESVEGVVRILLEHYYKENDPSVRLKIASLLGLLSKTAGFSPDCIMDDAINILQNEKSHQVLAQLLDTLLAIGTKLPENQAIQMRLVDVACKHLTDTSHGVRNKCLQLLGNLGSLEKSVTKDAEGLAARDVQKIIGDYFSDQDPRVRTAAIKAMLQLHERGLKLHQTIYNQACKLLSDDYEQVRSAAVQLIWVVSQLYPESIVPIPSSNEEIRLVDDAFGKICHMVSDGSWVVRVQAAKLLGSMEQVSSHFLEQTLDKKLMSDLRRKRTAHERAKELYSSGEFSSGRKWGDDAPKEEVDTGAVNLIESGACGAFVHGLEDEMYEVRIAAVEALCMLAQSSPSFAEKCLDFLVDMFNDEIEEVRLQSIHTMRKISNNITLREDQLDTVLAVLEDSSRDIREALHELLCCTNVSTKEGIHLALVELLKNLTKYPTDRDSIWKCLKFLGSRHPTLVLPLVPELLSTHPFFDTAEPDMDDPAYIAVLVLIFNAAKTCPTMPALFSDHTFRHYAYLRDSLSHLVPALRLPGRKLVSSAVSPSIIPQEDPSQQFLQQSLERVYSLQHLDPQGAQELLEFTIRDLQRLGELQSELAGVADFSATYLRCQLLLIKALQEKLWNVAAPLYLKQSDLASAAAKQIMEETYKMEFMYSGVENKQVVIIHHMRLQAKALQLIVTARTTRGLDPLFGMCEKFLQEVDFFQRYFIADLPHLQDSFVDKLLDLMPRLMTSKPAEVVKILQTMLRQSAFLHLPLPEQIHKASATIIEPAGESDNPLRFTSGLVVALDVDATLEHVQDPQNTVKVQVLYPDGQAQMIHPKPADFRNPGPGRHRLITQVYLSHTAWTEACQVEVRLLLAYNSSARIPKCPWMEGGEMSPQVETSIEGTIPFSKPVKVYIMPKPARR
UniProt P52333: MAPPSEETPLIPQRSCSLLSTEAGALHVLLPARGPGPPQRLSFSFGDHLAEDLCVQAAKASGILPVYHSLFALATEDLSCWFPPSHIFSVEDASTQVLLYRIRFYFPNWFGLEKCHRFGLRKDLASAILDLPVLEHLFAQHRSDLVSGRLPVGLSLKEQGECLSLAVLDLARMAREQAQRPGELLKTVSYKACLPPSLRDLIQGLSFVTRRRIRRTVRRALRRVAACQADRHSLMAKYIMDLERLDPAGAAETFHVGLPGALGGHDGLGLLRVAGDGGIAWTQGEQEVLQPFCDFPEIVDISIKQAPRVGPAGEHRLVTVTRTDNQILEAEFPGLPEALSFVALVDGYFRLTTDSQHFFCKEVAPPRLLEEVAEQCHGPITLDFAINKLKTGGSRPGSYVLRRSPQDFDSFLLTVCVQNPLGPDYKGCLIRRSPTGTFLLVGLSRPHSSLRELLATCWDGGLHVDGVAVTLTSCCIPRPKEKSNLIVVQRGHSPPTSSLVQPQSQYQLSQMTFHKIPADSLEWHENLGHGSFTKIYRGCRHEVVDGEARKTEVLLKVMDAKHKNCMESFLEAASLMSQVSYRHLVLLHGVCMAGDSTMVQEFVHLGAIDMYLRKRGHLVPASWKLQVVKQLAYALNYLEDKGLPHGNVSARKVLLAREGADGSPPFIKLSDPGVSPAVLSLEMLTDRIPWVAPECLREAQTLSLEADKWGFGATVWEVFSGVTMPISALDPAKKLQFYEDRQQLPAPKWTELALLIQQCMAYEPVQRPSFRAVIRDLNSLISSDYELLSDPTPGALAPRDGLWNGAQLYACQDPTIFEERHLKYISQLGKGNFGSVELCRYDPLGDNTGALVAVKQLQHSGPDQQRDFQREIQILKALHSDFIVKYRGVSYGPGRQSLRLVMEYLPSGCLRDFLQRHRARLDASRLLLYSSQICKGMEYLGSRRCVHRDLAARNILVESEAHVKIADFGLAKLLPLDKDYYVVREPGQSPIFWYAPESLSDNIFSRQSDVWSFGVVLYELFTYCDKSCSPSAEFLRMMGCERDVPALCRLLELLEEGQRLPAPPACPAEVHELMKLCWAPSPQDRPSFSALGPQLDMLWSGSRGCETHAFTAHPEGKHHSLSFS
UniProt O43736: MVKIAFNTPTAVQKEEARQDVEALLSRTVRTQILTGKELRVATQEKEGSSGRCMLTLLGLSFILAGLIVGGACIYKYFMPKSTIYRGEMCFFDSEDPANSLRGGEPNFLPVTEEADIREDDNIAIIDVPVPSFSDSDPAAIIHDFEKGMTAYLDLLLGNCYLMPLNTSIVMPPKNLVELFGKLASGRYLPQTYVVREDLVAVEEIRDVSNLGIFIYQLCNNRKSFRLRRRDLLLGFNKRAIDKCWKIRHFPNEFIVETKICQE
UniProt Q86VI3: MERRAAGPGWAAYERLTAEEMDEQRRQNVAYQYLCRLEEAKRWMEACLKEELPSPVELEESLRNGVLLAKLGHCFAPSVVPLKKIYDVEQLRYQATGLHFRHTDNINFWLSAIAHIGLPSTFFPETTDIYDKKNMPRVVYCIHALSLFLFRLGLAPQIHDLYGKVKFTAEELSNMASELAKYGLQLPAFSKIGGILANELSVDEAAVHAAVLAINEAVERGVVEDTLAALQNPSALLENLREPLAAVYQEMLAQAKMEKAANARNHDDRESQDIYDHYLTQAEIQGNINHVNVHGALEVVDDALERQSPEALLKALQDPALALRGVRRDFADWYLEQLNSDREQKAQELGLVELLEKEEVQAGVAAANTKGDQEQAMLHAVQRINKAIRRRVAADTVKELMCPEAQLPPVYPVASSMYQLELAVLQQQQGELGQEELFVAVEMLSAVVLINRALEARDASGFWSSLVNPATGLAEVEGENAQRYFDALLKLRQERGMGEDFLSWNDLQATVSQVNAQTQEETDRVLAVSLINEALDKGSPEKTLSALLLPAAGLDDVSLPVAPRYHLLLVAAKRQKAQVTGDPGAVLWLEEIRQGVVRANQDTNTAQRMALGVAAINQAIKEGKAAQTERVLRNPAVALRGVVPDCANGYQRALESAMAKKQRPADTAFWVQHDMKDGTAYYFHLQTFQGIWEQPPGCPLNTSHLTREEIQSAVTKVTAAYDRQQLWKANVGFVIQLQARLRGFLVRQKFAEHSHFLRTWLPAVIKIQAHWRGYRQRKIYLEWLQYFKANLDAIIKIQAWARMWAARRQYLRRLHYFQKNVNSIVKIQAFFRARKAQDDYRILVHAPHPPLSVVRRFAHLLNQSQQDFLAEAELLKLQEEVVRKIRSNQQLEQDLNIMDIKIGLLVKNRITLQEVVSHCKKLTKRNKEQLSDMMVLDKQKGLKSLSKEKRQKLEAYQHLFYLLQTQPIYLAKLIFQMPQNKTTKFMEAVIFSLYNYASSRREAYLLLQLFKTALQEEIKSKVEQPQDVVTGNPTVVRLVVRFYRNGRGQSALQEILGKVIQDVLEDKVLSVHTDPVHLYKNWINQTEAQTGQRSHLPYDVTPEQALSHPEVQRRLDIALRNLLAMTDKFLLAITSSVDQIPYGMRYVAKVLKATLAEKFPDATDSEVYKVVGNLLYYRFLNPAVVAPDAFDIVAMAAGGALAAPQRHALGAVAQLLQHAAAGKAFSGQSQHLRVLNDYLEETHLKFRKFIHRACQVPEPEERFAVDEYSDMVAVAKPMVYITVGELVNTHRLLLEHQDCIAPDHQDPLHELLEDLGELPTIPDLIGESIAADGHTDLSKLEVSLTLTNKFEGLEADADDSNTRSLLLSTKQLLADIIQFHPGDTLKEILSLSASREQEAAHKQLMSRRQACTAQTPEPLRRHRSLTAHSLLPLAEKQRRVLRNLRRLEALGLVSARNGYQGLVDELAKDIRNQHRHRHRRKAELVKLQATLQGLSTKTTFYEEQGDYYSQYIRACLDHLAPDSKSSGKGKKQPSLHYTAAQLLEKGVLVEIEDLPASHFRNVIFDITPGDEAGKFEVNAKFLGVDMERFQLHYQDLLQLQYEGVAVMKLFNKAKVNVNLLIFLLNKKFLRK

Compound in a further assay: CS(=O)(=O)N1CCN(Cc2cc3nc(-c4cccc5[nH]ncc45)nc(N4CCOCC4)c3s2)CC1 [pictilisib]
In short, it runs like this: as §1

Compound in the next assay: C[C@@H](Oc1cc(-c2cnn(C3CCNCC3)c2)cnc1N)c1c(Cl)ccc(F)c1Cl [crizotinib]
The gist of the method:
as §1

Compound in a further assay: C[C@H](Nc1ncnc2nc[nH]c12)c1cc2cccc(Cl)c2c(=O)n1-c1ccccc1 [duvelisib]
In short, it runs like this:
as §1

Compound in another assay: Cc1cc(Nc2cc(N3CCN(C)CC3)nc(Sc3ccc(NC(=O)C4CC4)cc3)n2)n[nH]1 [tozasertib]
In short, it runs like this: as §1

Compound in another assay: Cc1ccc(-n2nc(C(C)(C)C)cc2NC(=O)Nc2ccc(OCCN3CCOCC3)c3ccccc23)cc1 [doramapimod]
The gist of the method:
as §1

Compound in another assay: Cc1ccc(NC(=O)c2ccc(CN3CC[C@H](N(C)C)C3)c(C(F)(F)F)c2)cc1Nc1nccc(-c2cncnc2)n1 [bafetinib]
In short, it runs like this: as §1

Compound in another assay: Cc1nc(Nc2ncc(C(=O)Nc3c(C)cccc3Cl)s2)cc(N2CCN(CCO)CC2)n1 [dasatinib]
In short, it runs like this:
as §1

Compound in assay [1]: Cn1cc(-c2ccc3c(c2)CCN3C(=O)Cc2cccc(C(F)(F)F)c2)c2c(N)ncnc21
In short, it runs like this: as §1

Compound in a further assay: Cn1cc(CNCC2CCN(c3ncc(C(=O)NO)cn3)CC2)c2ccccc21 [quisinostat]
In short, it runs like this: as §1

Compound in assay [2]: NC(=O)Nc1cc(-c2cccc(F)c2)sc1C(=O)N[C@H]1CCCNC1
In short, it runs like this:
as §1

Compound in assay [3]: NC(=O)c1cnc(N[C@@H]2CCCC[C@@H]2N)nc1Nc1cccc(-n2nccn2)c1
In short, it runs like this:
as §1

Compound in assay [4]: NC1(c2ccc(-c3nc4ccn5c(=O)[nH]nc5c4cc3-c3ccccc3)cc2)CCC1
The gist of the method:
as §1

Compound in assay [5]: C[C@H](C1=CC=C(C=C1)C(=O)NC2=C3C=CNC3=NC=C2)N
In short, it runs like this:
as §1

Compound in the next assay: Cc1cc(Nc2cc(CN3CCOCC3)c3nc(C)c(Cc4ccc(Cl)cc4F)n3n2)n[nH]1 [gandotinib]
The gist of the method: as §1

Compound in assay [6]: Cc1cccc(CC(=O)N2CCc3c2ccc(-c2cn(C)c4ncnc(N)c24)c3F)n1
In short, it runs like this:
as §1

Compound in another assay: Cc1cn(-c2cc(NC(=O)c3ccc(C)c(Nc4nccc(-c5cccnc5)n4)c3)cc(C(F)(F)F)c2)cn1 [nilotinib]
The gist of the method: as §1

Compound in assay [7]: Cc1nc(Nc2n[nH]c3c2CN(C(=O)N[C@H](CN(C)C)c2ccccc2)C3(C)C)c2sccc2n1
The gist of the method: as §1

Compound in assay [8]: Cc1ncc(-c2ccnc(Nc3ccc(S(C)(=O)=O)cc3)n2)n1C(C)C
In short, it runs like this:
as §1

Compound in a further assay: Cn1cncc1[C@@](N)(c1ccc(Cl)cc1)c1ccc2c(c1)c(-c1cccc(Cl)c1)cc(=O)n2C [tipifarnib]
In short, it runs like this: as §1

The list shows a part of the results.

With KBTBD7 (UniProt Q8WVZ9), the log2 fold change with lapatinib is inactive: -0.033; with pictilisib it was inactive: -0.195; with crizotinib, inactive: 0.007; with duvelisib, inactive: -0.025; with tozasertib, inactive: 0.14; with doramapimod, inactive: -0.05. In addition, the log2 fold change in the assay with bafetinib is inactive: -0.213; with dasatinib it was inactive: 0.023; in assay [1] it was inactive: 0.002; with quisinostat, inactive: -0.077; in [2] it was inactive: 0; in [3], inactive: -0.053. Further, in [4], the log2 fold change was inactive: 0.036.

On to ITGAE (UniProt P38570), for which the log2 fold change was inactive: -0.162 with lapatinib; inactive: 0.047 with pictilisib; inactive: -0.382 in assay [5]; inactive: 0.109 in the assay with gandotinib; inactive: 0.071 with tozasertib; inactive: -0.215 in the assay with bafetinib. The log2 fold change in assay [6] is inactive: 0.282; with nilotinib it was inactive: 0.024; in assay [7], inactive: -0.12; in assay [8] it was inactive: -0.046; with tipifarnib it was inactive: 0.073; in assay [3], inactive: 0.021. Also, the log2 fold change in assay [4] is inactive: -0.133.

Consider INTS4 (UniProt Q96HW7), for which the log2 fold change with lapatinib was inactive: -0.073; with pictilisib it was inactive: -0.046; with crizotinib, inactive: -0.027; in assay [5], inactive: -0.036; in the assay with duvelisib, inactive: -0.025; with gandotinib it was inactive: 0.007. Besides, the log2 fold change was inactive: -0.014 with tozasertib; inactive: -0.032 with doramapimod; inactive: -0.067 in the assay with bafetinib; inactive: 0.038 in [6]; inactive: 0.021 with nilotinib; inactive: -0.028 in assay [7]. For the same target, the log2 fold change in the assay with dasatinib is inactive: -0.019; in assay [8] it was inactive: -0.023; in assay [1], inactive: -0.007; with quisinostat, inactive: -0.017; with tipifarnib, inactive: 0.073; in assay [2], inactive: -0.005. The log2 fold change in assay [3] is inactive: 0.032; in assay [4], inactive: 0.047.

Consider JAK3 (UniProt P52333), for which the log2 fold change with lapatinib is inactive: -0.002; in the assay with pictilisib, inactive: 0.01; in the assay with crizotinib, inactive: 0.051; in assay [5], inactive: 0.418; with gandotinib, inactive: -0.526; with doramapimod, inactive: -0.081. For the same target, the log2 fold change in the assay with bafetinib was inactive: 0.14; in [6], active: -0.612; with quisinostat, inactive: 0.131; in assay [2] it was inactive: 0.008; in assay [3], inactive: -0.056.

With ITPR1 (UniProt Q14643), the log2 fold change is inactive: -0.079 in the assay with lapatinib; inactive: 0.009 in the assay with pictilisib; inactive: -0.122 with crizotinib; inactive: -0.069 in [5]; inactive: -0.114 with gandotinib; inactive: -0.043 in the assay with tozasertib. In addition, the log2 fold change in the assay with doramapimod is inactive: -0.067; with bafetinib, inactive: -0.128; in assay [6] it was inactive: 0.022; in the assay with quisinostat, inactive: 0.052; in assay [2], inactive: 0.027; in assay [3] it was inactive: 0.151.

Consider IQSEC2 (UniProt Q5JU85), for which the log2 fold change with lapatinib is inactive: -0.063; in the assay with pictilisib, inactive: -0.133; with crizotinib, inactive: -0.088; in [5], inactive: -0.056; with duvelisib it was inactive: 0.252; with gandotinib, inactive: -0.078. The log2 fold change in the assay with tozasertib was inactive: -0.023; with doramapimod it was inactive: 0.008; with bafetinib, inactive: -0.144; in [6], inactive: -0.018; in the assay with nilotinib, inactive: 0.044; in [7], inactive: -0.063. Also, the log2 fold change with dasatinib was inactive: 0.174; in assay [8] it was inactive: -0.142; in assay [1], inactive: 0.179; in the assay with quisinostat, inactive: -0.05; in the assay with tipifarnib it was inactive: -0.004; in assay [2] it was inactive: 0.032. Further, the log2 fold change in assay [3] is inactive: 0.072; in assay [4], inactive: -0.018.

With ITM2A (UniProt O43736), the log2 fold change in the assay with lapatinib is inactive: -0.005; in the assay with pictilisib it was inactive: -0.104; in assay [5], inactive: 0.097; with duvelisib, inactive: 0.003; with gandotinib, inactive: -0.108; with tozasertib, inactive: -0.025. Also, the log2 fold change was inactive: -0.147 in the assay with bafetinib; inactive: -0.016 in [6]; inactive: -0.199 with nilotinib; inactive: -0.228 in assay [7]; inactive: 0.118 with dasatinib; inactive: 0.263 in [8]. The log2 fold change was inactive: -0.02 in assay [1], inactive: 0.065 in the assay with tipifarnib, inactive: 0.093 in assay [3] and inactive: -0.1 in [4].

Consider IQGAP3 (UniProt Q86VI3), for which the log2 fold change with lapatinib is inactive: -0.035; in the assay with pictilisib it was inactive: 0.025; in the assay with crizotinib it was inactive: -0.049; in assay [5], inactive: -0.023; with duvelisib, inactive: -0.028; with gandotinib, inactive: -0.076. Further, the log2 fold change with doramapimod was inactive: 0.021; with bafetinib it was inactive: 0.132; in assay [6] it was inactive: 0.059; in the assay with nilotinib it was inactive: -0.003; in assay [7], inactive: 0.008; with dasatinib, inactive: 0.023. The log2 fold change was inactive: 0.006 in assay [8]; inactive: 0.039 in [1]; inactive: -0.055 in the assay with quisinostat; inactive: -0.048 with tipifarnib; inactive: 0.073 in assay [2]; inactive: -0.164 in assay [3]. The log2 fold change in [4] is inactive: -0.019.

As to IWS1 (UniProt Q96ST2), the log2 fold change in the assay with lapatinib is inactive: 0.027; with pictilisib, inactive: -0.039; in the assay with crizotinib it was inactive: 0.046; in [5] it was inactive: 0.023; with duvelisib, inactive: -0.021; in the assay with gandotinib, inactive: -0.008. Moreover, the log2 fold change was inactive: -0.004 with tozasertib; inactive: 0.023 with doramapimod; inactive: -0.003 with bafetinib; inactive: -0.054 in assay [6]; inactive: 0.029 in the assay with nilotinib; inactive: -0.009 in assay [7]. Also, the log2 fold change is inactive: 0.026 with dasatinib; inactive: 0.002 in [8]; inactive: -0.009 in assay [1]; inactive: 0.053 with quisinostat; inactive: 0.001 with tipifarnib; inactive: -0.015 in assay [2]. Also, the log2 fold change was inactive: 0.029 in assay [3] and inactive: 0.002 in [4].

Source of the values: the supplement of paper PMC10849652.
